# Results are given in words; binding and its absence hold for the method and conditions named. Binding seen in cells or lysates may run through a third protein. Some entries that bind do so weakly or less than the wild type.
# Protein sequences, listed by entry. Tags and fused reporters are not part of them.
# UniProt Q9WUD1: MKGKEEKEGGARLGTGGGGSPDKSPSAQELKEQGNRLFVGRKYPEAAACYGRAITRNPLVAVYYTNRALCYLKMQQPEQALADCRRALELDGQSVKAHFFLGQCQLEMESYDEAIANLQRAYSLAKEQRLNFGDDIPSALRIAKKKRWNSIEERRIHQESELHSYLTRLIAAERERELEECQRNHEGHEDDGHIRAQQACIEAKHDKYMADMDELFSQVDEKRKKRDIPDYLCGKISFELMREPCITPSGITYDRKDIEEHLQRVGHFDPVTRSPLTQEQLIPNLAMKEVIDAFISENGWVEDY
# Legend:
# [1] = target: T1, Endogenous ALDH1L1 of NIH3T3 cells (mouse (endogenous in NIH3T3)) (UniProt Q8R0Y6); assay: pull-down; NIH3T3 lysate loaded on the folate-affinity column, which retains endogenous ALDH1L1; stepwise elution with 0.5, 1.0 and 2.0 M KCl, then 5 and 20 mM folic acid in 2.0 M KCl; fractions analysed by SDS-PAGE/Western blot
# T1 sequence: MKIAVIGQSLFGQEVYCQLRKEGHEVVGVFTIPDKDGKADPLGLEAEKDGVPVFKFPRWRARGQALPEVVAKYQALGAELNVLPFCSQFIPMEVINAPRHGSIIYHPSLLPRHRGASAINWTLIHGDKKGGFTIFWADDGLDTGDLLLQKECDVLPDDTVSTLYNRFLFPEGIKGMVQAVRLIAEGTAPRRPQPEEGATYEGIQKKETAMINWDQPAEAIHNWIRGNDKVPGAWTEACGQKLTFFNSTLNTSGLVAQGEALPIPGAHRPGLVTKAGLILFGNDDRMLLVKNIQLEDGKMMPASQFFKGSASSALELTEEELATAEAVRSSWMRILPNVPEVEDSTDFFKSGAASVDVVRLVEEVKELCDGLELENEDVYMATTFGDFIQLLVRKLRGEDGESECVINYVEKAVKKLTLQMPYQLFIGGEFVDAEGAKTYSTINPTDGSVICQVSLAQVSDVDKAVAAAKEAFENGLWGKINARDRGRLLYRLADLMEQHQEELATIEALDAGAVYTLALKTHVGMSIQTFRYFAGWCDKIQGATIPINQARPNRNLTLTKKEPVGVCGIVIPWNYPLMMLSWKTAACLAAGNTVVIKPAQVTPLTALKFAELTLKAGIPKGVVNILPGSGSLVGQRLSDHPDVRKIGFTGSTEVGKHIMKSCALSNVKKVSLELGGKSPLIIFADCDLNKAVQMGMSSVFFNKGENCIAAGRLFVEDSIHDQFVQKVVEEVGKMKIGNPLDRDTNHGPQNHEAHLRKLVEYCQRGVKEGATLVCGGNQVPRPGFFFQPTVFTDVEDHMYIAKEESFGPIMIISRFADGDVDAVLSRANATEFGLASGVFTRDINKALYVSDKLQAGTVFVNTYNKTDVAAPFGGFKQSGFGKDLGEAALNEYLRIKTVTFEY
# [2] = target: T1, Endogenous ALDH1L1 of NIH3T3 cells (mouse (endogenous in NIH3T3)); assay: co-IP; NIH3T3 lysate (RIPA buffer), immunoprecipitated with ALDH1L1-specific antibody (protein G Sepharose or Surebeads) or with anti-HSP90 antibody (protein A magnetic beads), 4 °C; Western blot with ALDH1L1-, HSP90- and CHIP-specific antibodies
substance,measurement,setting,value
Endogenous E3 ubiquitin-protein ligase CHIP of NIH3T3 cells (from UniProt Q9WUD1 1-304) (enzyme),binding,[1],binds
same,binding,[2],binds

# Source: paper PMC6034817
